{"source": "patent US6627441B1", "about": "“Increasing levels of growth regulator and/or water stress during embryo development” (priority 1998, dated 2003)", "system": "white spruce somatic embryos", "test": "Effect of water stress and ABA on somatic embryo moisture contents (Example 4)", "format": "cell-based", "conditions": "treatment 2: mannitol 290, 400, 540 mmol/kg with ABA 20, 30, 40 μM; six weeks", "protocol": "Water potentials were measured for liquid media containing various osmotica at a range of concentrations, which were plotted on a curve. Determinations were made using a vapour pressure osmometer (Wescor). Moisture content determinations were done using methods described previously by Attree et al. (U.S. Pat. No. 5,464,769).\nEmbryos were cultured on medium containing 3% sucrose and ABA, with additional osmoticum adjusted to vary water potentials, as shown in Table 4.\nEmbryos were cultured for six weeks and moisture contents determined. Determinations for each treatment were made weekly, with three replicates per treatment. 50 embryos per replicate were used. In some instances, particularly for the control with low osmoticum, insufficient embryos were produced. In these cases, the minimum number of embryos used per replicate was thirty. For weeks 0 to 2, the embryos were too small to be used for moisture content determinations, so whole tissue was used instead.", "note": "Some results were stated once for a whole list of compounds, not compound by compound.", "data": [{"smiles": "OC[C@@H](O)[C@@H](O)[C@H](O)[C@H](O)CO", "note": "[mannitol]", "values": [{"measurement": "moisture content of somatic embryos", "result": "greater than 60%"}]}]}
